Reference: US20100041694A1, “AGRICULTURAL COMPOSITION FOR CONTROLLING OR PREVENTING PLANT DISEASES CAUSED BY PLANT PATHOGENIC MICROBES” (Sumitomo Chemical Company, Limited, priority 2007, published 2010)
Some of these results come from one statement about several compounds together.

Assays:
Type in all cases: in vivo
Gaeumannomyces graminis = assay: Malt damping off, seed treatment; settings: contaminated malt seeds, seed treatment 200 g compound per 100 kg seeds, 1 month
[1] = test system: Verticillium albo-atrum, V. dahliae, V. nigrescens; assay: Potato blue stem, soil irrigation treatment; settings: potato (Danshaku) in contaminated soil, 10 mg compound per pot by soil irrigation, 2 months
Gibberella fujikuroi = assay: Rice bakanae disease, seed treatment; settings: contaminated unhulled rice, seed treatment 200 g compound per 100 kg seeds, 1 month
Sclerotinia sclerotiorum = assay: Preventing infection by cucumber Sclerotinia rot, foliage application; settings: cucumber (Sagami-Hanjiro), flowable formulation 500 ppm foliage application, then inoculation; 18° C. high humidity 4 days
Botrytis cinerea = assay: Preventing infection by cucumber gray mold, foliage application; settings: cucumber (Sagami-Hanjiro), flowable formulation 500 ppm foliage application, then inoculation; 12° C. high humidity 5 days
Fusarium oxysporum = assay: Preventing infection by tomato wilt by soil treatment (irrigation); settings: tomato (Patio) in contaminated soil, 10 mg compound per pot by soil irrigation, 1 month

O=C(NCc1ccc(OCc2ccccc2)cc1)c1ccc2ncccc2c1 [Compound 2]
growth of treated plants (Gaeumannomyces graminis): favorably grow at a level equivalent to that of plants that grow from noncontaminated seeds
blotches in treated plants [1]: no blotches are found
growth of treated plants [1]: favorably grow at a level equivalent to that of plants that grow in noncontaminated soil
growth of treated plants (Gibberella fujikuroi): favorably grow at a level equivalent to that of plants that have grown from noncontaminated unhulled rice
infected areas of treated plants relative to infected areas of untreated plants (Sclerotinia sclerotiorum): ≤ 10%
infected areas of treated plants relative to infected areas of untreated plants (Botrytis cinerea): ≤ 10%
blotches in treated plants (Fusarium oxysporum): no blotches are found
growth of treated plants (Fusarium oxysporum): favorably grow at a level equivalent to that of plants that grow have in noncontaminated soil

O=C(NCc1ccc(OCc2ccccc2)cc1F)c1ccc2ncccc2c1 [Compound 9]
growth of treated plants (Gaeumannomyces graminis): favorably grow at a level equivalent to that of plants that grow from noncontaminated seeds
blotches in treated plants [1]: no blotches are found
growth of treated plants [1]: favorably grow at a level equivalent to that of plants that grow in noncontaminated soil
growth of treated plants (Gibberella fujikuroi): favorably grow at a level equivalent to that of plants that have grown from noncontaminated unhulled rice
infected areas of treated plants relative to infected areas of untreated plants (Sclerotinia sclerotiorum): ≤ 10%
infected areas of treated plants relative to infected areas of untreated plants (Botrytis cinerea): ≤ 10%
blotches in treated plants (Fusarium oxysporum): no blotches are found
growth of treated plants (Fusarium oxysporum): favorably grow at a level equivalent to that of plants that grow have in noncontaminated soil

O=C(NCc1cccc(Oc2cccc(F)c2)c1)c1ccc2ncccc2c1 [Compound 12]
growth of treated plants (Gaeumannomyces graminis): favorably grow at a level equivalent to that of plants that grow from noncontaminated seeds
blotches in treated plants [1]: no blotches are found
growth of treated plants [1]: favorably grow at a level equivalent to that of plants that grow in noncontaminated soil
growth of treated plants (Gibberella fujikuroi): favorably grow at a level equivalent to that of plants that have grown from noncontaminated unhulled rice
infected areas of treated plants relative to infected areas of untreated plants (Sclerotinia sclerotiorum): ≤ 10%
infected areas of treated plants relative to infected areas of untreated plants (Botrytis cinerea): ≤ 10%
blotches in treated plants (Fusarium oxysporum): no blotches are found
growth of treated plants (Fusarium oxysporum): favorably grow at a level equivalent to that of plants that grow have in noncontaminated soil

O=C(NCc1cccc(OCC2CC2)c1)c1ccc2ncccc2c1 [Compound 16]
growth of treated plants (Gaeumannomyces graminis): favorably grow at a level equivalent to that of plants that grow from noncontaminated seeds
blotches in treated plants [1]: no blotches are found
growth of treated plants [1]: favorably grow at a level equivalent to that of plants that grow in noncontaminated soil
growth of treated plants (Gibberella fujikuroi): favorably grow at a level equivalent to that of plants that have grown from noncontaminated unhulled rice
infected areas of treated plants relative to infected areas of untreated plants (Sclerotinia sclerotiorum): ≤ 10%
infected areas of treated plants relative to infected areas of untreated plants (Botrytis cinerea): ≤ 10%
blotches in treated plants (Fusarium oxysporum): no blotches are found
growth of treated plants (Fusarium oxysporum): favorably grow at a level equivalent to that of plants that grow have in noncontaminated soil

CC(C)CCOc1cccc(CNC(=O)c2ccc3ncccc3c2)c1 [Compound 18]
growth of treated plants (Gaeumannomyces graminis): favorably grow at a level equivalent to that of plants that grow from noncontaminated seeds
blotches in treated plants [1]: no blotches are found
growth of treated plants [1]: favorably grow at a level equivalent to that of plants that grow in noncontaminated soil
growth of treated plants (Gibberella fujikuroi): favorably grow at a level equivalent to that of plants that have grown from noncontaminated unhulled rice
infected areas of treated plants relative to infected areas of untreated plants (Sclerotinia sclerotiorum): ≤ 10%
infected areas of treated plants relative to infected areas of untreated plants (Botrytis cinerea): ≤ 10%
blotches in treated plants (Fusarium oxysporum): no blotches are found
growth of treated plants (Fusarium oxysporum): favorably grow at a level equivalent to that of plants that grow have in noncontaminated soil

O=C(NCc1cccc(Oc2ccccc2)c1)c1ccc2ncsc2c1 [Compound 32]
growth of treated plants (Gaeumannomyces graminis): favorably grow at a level equivalent to that of plants that grow from noncontaminated seeds
blotches in treated plants [1]: no blotches are found
growth of treated plants [1]: favorably grow at a level equivalent to that of plants that grow in noncontaminated soil
growth of treated plants (Gibberella fujikuroi): favorably grow at a level equivalent to that of plants that have grown from noncontaminated unhulled rice
infected areas of treated plants relative to infected areas of untreated plants (Botrytis cinerea): ≤ 10%
blotches in treated plants (Fusarium oxysporum): no blotches are found
growth of treated plants (Fusarium oxysporum): favorably grow at a level equivalent to that of plants that grow have in noncontaminated soil

O=C(Cc1ccccc1F)Nc1ccc2ncsc2c1 [Compound 225]
growth of treated plants (Gaeumannomyces graminis): favorably grow at a level equivalent to that of plants that grow from noncontaminated seeds
blotches in treated plants [1]: no blotches are found
growth of treated plants [1]: favorably grow at a level equivalent to that of plants that grow in noncontaminated soil
growth of treated plants (Gibberella fujikuroi): favorably grow at a level equivalent to that of plants that have grown from noncontaminated unhulled rice
infected areas of treated plants relative to infected areas of untreated plants (Sclerotinia sclerotiorum): ≤ 10%
blotches in treated plants (Fusarium oxysporum): no blotches are found
growth of treated plants (Fusarium oxysporum): favorably grow at a level equivalent to that of plants that grow have in noncontaminated soil

O=C(Cc1cccc(F)c1)Nc1ccc2ncsc2c1 [Compound 226]
growth of treated plants (Gaeumannomyces graminis): favorably grow at a level equivalent to that of plants that grow from noncontaminated seeds
blotches in treated plants [1]: no blotches are found
growth of treated plants [1]: favorably grow at a level equivalent to that of plants that grow in noncontaminated soil
growth of treated plants (Gibberella fujikuroi): favorably grow at a level equivalent to that of plants that have grown from noncontaminated unhulled rice
infected areas of treated plants relative to infected areas of untreated plants (Sclerotinia sclerotiorum): ≤ 10%
blotches in treated plants (Fusarium oxysporum): no blotches are found
growth of treated plants (Fusarium oxysporum): favorably grow at a level equivalent to that of plants that grow have in noncontaminated soil

O=C(Cc1ccc(F)cc1)Nc1ccc2ncsc2c1 [Compound 227]
growth of treated plants (Gaeumannomyces graminis): favorably grow at a level equivalent to that of plants that grow from noncontaminated seeds
blotches in treated plants [1]: no blotches are found
growth of treated plants [1]: favorably grow at a level equivalent to that of plants that grow in noncontaminated soil
growth of treated plants (Gibberella fujikuroi): favorably grow at a level equivalent to that of plants that have grown from noncontaminated unhulled rice
infected areas of treated plants relative to infected areas of untreated plants (Sclerotinia sclerotiorum): ≤ 10%
blotches in treated plants (Fusarium oxysporum): no blotches are found
growth of treated plants (Fusarium oxysporum): favorably grow at a level equivalent to that of plants that grow have in noncontaminated soil

COc1cccc(CNC(=S)c2ccc3ncccc3n2)c1F [Compound 228]
growth of treated plants (Gaeumannomyces graminis): favorably grow at a level equivalent to that of plants that grow from noncontaminated seeds
blotches in treated plants [1]: no blotches are found
growth of treated plants [1]: favorably grow at a level equivalent to that of plants that grow in noncontaminated soil
growth of treated plants (Gibberella fujikuroi): favorably grow at a level equivalent to that of plants that have grown from noncontaminated unhulled rice
infected areas of treated plants relative to infected areas of untreated plants (Sclerotinia sclerotiorum): ≤ 10%
blotches in treated plants (Fusarium oxysporum): no blotches are found
growth of treated plants (Fusarium oxysporum): favorably grow at a level equivalent to that of plants that grow have in noncontaminated soil

CC(C)=CCOc1cccc(CC(=O)Nc2ccc3ncsc3c2)c1 [Compound 229]
growth of treated plants (Gaeumannomyces graminis): favorably grow at a level equivalent to that of plants that grow from noncontaminated seeds
blotches in treated plants [1]: no blotches are found
growth of treated plants [1]: favorably grow at a level equivalent to that of plants that grow in noncontaminated soil
growth of treated plants (Gibberella fujikuroi): favorably grow at a level equivalent to that of plants that have grown from noncontaminated unhulled rice
infected areas of treated plants relative to infected areas of untreated plants (Sclerotinia sclerotiorum): ≤ 10%
blotches in treated plants (Fusarium oxysporum): no blotches are found
growth of treated plants (Fusarium oxysporum): favorably grow at a level equivalent to that of plants that grow have in noncontaminated soil

CC(C)CCOc1cccc(CC(=O)Nc2ccc3ncsc3c2)c1 [Compound 230]
growth of treated plants (Gaeumannomyces graminis): favorably grow at a level equivalent to that of plants that grow from noncontaminated seeds
blotches in treated plants [1]: no blotches are found
growth of treated plants [1]: favorably grow at a level equivalent to that of plants that grow in noncontaminated soil
growth of treated plants (Gibberella fujikuroi): favorably grow at a level equivalent to that of plants that have grown from noncontaminated unhulled rice
infected areas of treated plants relative to infected areas of untreated plants (Sclerotinia sclerotiorum): ≤ 10%
blotches in treated plants (Fusarium oxysporum): no blotches are found
growth of treated plants (Fusarium oxysporum): favorably grow at a level equivalent to that of plants that grow have in noncontaminated soil

S=C(Cc1cccc(Oc2ccccc2)c1)Nc1ccc2ncccc2c1 [Compound 231]
growth of treated plants (Gaeumannomyces graminis): favorably grow at a level equivalent to that of plants that grow from noncontaminated seeds
blotches in treated plants [1]: no blotches are found
growth of treated plants [1]: favorably grow at a level equivalent to that of plants that grow in noncontaminated soil
growth of treated plants (Gibberella fujikuroi): favorably grow at a level equivalent to that of plants that have grown from noncontaminated unhulled rice
infected areas of treated plants relative to infected areas of untreated plants (Sclerotinia sclerotiorum): ≤ 10%
blotches in treated plants (Fusarium oxysporum): no blotches are found
growth of treated plants (Fusarium oxysporum): favorably grow at a level equivalent to that of plants that grow have in noncontaminated soil
